# This is one part of the list.
# B1: Pwp7 (Candida glabrata) (protein)
# chain: MGSSHHHHHHSSGLVPRGSHMASKNPVDFPNLCQYPNLDGAVAGFDTEIYNADPSILINFSLWPILQFPKEWHKTIGRAITTQTNFKLPASDTTLFGVSIPTQNILIEFRGYFIPPKSGTYTFALYLTDDGSAMFLGNDAAFPCGNITSWSNPTNDQVSVSDYDPKKKTLTVYMVAGVAYPLRIAYYNREKGGSLTASFVDPDGLTHSDWNGYIWTLPSCDNCKYS
# Tests used:
# Assay in all cases: glycan array binding signal (z-score within array); higher = stronger binding
# Settings in all cases: glycan notation: IUPAC condensed, linker removed
# Gal(b1-4)Glc = target: Gal(b1-4)Glc
# Method in brief: (§1)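 The binding signal is a Z-score computed within each array and averaged over linkers. Arrays of the same protein sequence at different concentrations or buffers were also averaged together. Data originate from 3228 arrays in the Consortium for Functional Glycomics database, kept only where the protein sequence was available.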
# Gal(b1-4)Glc6S = target: Gal(b1-4)Glc6S
# Method in brief: as §1
# Gal(b1-4)GlcNAc = target: Gal(b1-4)GlcNAc
# Method in brief: as §1
# [1] = target: Gal(b1-4)GlcNAc(a1-6)Gal(b1-4)GlcNAc
# Method in brief: as §1
# Gal(b1-4)GlcNAc(b1-2)Man = target: Gal(b1-4)GlcNAc(b1-2)Man
# Method in brief: as §1
# [2] = target: Gal(b1-4)GlcNAc(b1-2)Man(a1-3)Man(b1-4)GlcNAc(b1-4)GlcNAc
# Method in brief: as §1
# [3] = target: Gal(b1-4)GlcNAc(b1-2)Man(a1-3)[Gal(b1-4)GlcNAc(b1-2)Man(a1-6)]Man(b1-4)GlcNAc(b1-4)GlcNAc
# Method in brief: as §1
# [4] = target: Gal(b1-4)GlcNAc(b1-2)Man(a1-3)[Gal(b1-4)GlcNAc(b1-2)Man(a1-6)]Man(b1-4)GlcNAc(b1-4)[Fuc(a1-6)]GlcNAc
# Method in brief: as §1
# [5] = target: Gal(b1-4)GlcNAc(b1-2)Man(a1-3)[Gal(b1-4)GlcNAc(b1-2)Man(a1-6)][Gal(b1-4)GlcNAc(b1-4)]Man(b1-4)GlcNAc(b1-4)[Fuc(a1-6)]GlcNAc
# Method in brief: as §1
# [6] = target: Gal(b1-4)GlcNAc(b1-2)Man(a1-3)[Gal(b1-4)GlcNAc(b1-2)Man(a1-6)][GlcNAc(b1-4)]Man(b1-4)GlcNAc(b1-4)[Fuc(a1-6)]GlcNAc
# Method in brief: as §1
# [7] = target: Gal(b1-4)GlcNAc(b1-2)Man(a1-3)[GlcNAc(b1-2)Man(a1-6)]Man(b1-4)GlcNAc(b1-4)GlcNAc
# Method in brief: as §1
# [8] = target: Gal(b1-4)GlcNAc(b1-2)Man(a1-3)[GlcNAc(b1-4)][Gal(b1-4)GlcNAc(b1-2)Man(a1-6)]Man(b1-4)GlcNAc(b1-4)GlcNAc
# Method in brief: as §1
# [9] = target: Gal(b1-4)GlcNAc(b1-2)Man(a1-3)[Man(a1-6)]Man(b1-4)GlcNAc(b1-4)GlcNAc
# Method in brief: as §1
# [10] = target: Gal(b1-4)GlcNAc(b1-2)Man(a1-6)Man(b1-4)GlcNAc(b1-4)GlcNAc
# Method in brief: as §1
# [11] = target: Gal(b1-4)GlcNAc(b1-2)Man(a1-6)[GlcNAc(b1-2)Man(a1-3)]Man(b1-4)GlcNAc(b1-4)GlcNAc
# Method in brief: as §1
# [12] = target: Gal(b1-4)GlcNAc(b1-2)Man(a1-6)[Man(a1-3)]Man(b1-4)GlcNAc(b1-4)GlcNAc
# Method in brief: as §1
# [13] = target: Gal(b1-4)GlcNAc(b1-2)[Gal(b1-4)GlcNAc(b1-4)]Man(a1-3)[Gal(b1-4)GlcNAc(b1-2)Man(a1-6)]Man(b1-4)GlcNAc(b1-4)GlcNAc
# Method in brief: as §1
# [14] = target: Gal(b1-4)GlcNAc(b1-2)[Gal(b1-4)GlcNAc(b1-4)]Man(a1-3)[Gal(b1-4)GlcNAc(b1-2)[Gal(b1-4)GlcNAc(b1-6)]Man(a1-6)]Man(b1-4)GlcNAc(b1-4)GlcNAc
# Method in brief: as §1
# [15] = target: Gal(b1-4)GlcNAc(b1-2)[Gal(b1-4)GlcNAc(b1-4)]Man(a1-3)[GlcNAc(b1-4)][Gal(b1-4)GlcNAc(b1-2)Man(a1-6)]Man(b1-4)GlcNAc(b1-4)GlcNAc
# Method in brief: as §1
# [16] = target: Gal(b1-4)GlcNAc(b1-2)[Gal(b1-4)GlcNAc(b1-4)]Man(a1-3)[GlcNAc(b1-4)][Gal(b1-4)GlcNAc(b1-2)[Gal(b1-4)GlcNAc(b1-6)]Man(a1-6)]Man(b1-4)GlcNAc(b1-4)GlcNAc
# Method in brief: as §1
# [17] = target: Gal(b1-4)GlcNAc(b1-2)[Gal(b1-4)GlcNAc(b1-6)]Man(a1-6)[Gal(b1-4)GlcNAc(b1-2)Man(a1-3)]Man(b1-4)GlcNAc(b1-4)GlcNAc
# Method in brief: as §1
# [18] = target: Gal(b1-4)GlcNAc(b1-2)[Gal(b1-4)GlcNAc(b1-6)]Man(a1-6)[Gal(b1-4)GlcNAc(b1-2)Man(a1-3)]Man(b1-4)GlcNAc(b1-4)[Fuc(a1-6)]GlcNAc
# Method in brief: as §1
binder,measurement,setting,value
B1,glycan array binding signal (z-score),Gal(b1-4)Glc,-0.623
same,glycan array binding signal (z-score),Gal(b1-4)Glc6S,-0.762
same,glycan array binding signal (z-score),Gal(b1-4)GlcNAc,-1.14
same,glycan array binding signal (z-score),[1],-0.777
same,glycan array binding signal (z-score),Gal(b1-4)GlcNAc(b1-2)Man,0.68
same,glycan array binding signal (z-score),[2],0.971
same,glycan array binding signal (z-score),[3],0.667
same,glycan array binding signal (z-score),[4],0.269
same,glycan array binding signal (z-score),[5],-0.544
same,glycan array binding signal (z-score),[6],-0.54
same,glycan array binding signal (z-score),[7],1.61
same,glycan array binding signal (z-score),[8],-0.3
same,glycan array binding signal (z-score),[9],1.95
same,glycan array binding signal (z-score),[10],0.711
same,glycan array binding signal (z-score),[11],1.31
same,glycan array binding signal (z-score),[12],1.63
same,glycan array binding signal (z-score),[13],-0.614
same,glycan array binding signal (z-score),[14],-0.379
same,glycan array binding signal (z-score),[15],-0.274
same,glycan array binding signal (z-score),[16],-0.128
same,glycan array binding signal (z-score),[17],0.103
same,glycan array binding signal (z-score),[18],0.305

# Not a retest: entries from further up.
binder,measurement,setting,value
B1,glycan array binding signal (z-score),Gal(b1-4)Glc,-0.623
same,glycan array binding signal (z-score),Gal(b1-4)Glc6S,-0.762
